Results: US20260240975A1, “VALIDATED HPV16-DERIVED S[…]” (Deutsches Krebsforschungszentrum Stiftung des öffentlichen …, priority 2023, published 2026)
Part of at least one peptide drawing is inferred or uncertain, most often the ends. No end group written: not given here.

Experiments:
[1] = test system: short-term antigen-specific T cell lines generated from PBMCs; test: Interferon-γ ELISpot assay on short-term T cell lines; format: cell-based, human; parameters: key: +: ELISPOT: Immungenicity of the peptide shown by IFN-gamma ELISPOT analysis; * Highlights data from published resources; +*: * Highlights data from published resources
[2] = test system: peptide-specific T cell cultures; test: T cell phenotyping and intracellular cytokine staining (flow cytometry); format: cell-based, human; parameters: key: +: cytokine: Immunogenicity of the peptide shown by intracellular cytokine staining (IFN-gamma, TNF-alpha); conditions: IFN-gamma, TNF-alpha

| Sequence | ELISpot ([1]; HLA restriction A02) | cytokine ([2]; HLA restriction A02) | ELISpot ([1]; HLA restriction B07) | cytokine ([2]; HLA restriction B07) |
| --- | --- | --- | --- | --- |
| IRTLEDLLMGT [compound 33] | + |  |  |  |
| LLMGTLGIVCP [compound 25] | + | + |  |  |
| LMGTLGIVCPI [compound 12] | + | + | + | + |
| MGTLGIVCPI [compound 14] | + |  |  |  |
| RLCVQSTHV [compound 11] | + |  |  |  |
| TTIHDIILECV [compound 30] | + |  |  |  |
| YMLDLQPE [compound 13] | + |  |  |  |
